In PubChem BioAssay AID493014 (National Center for Advancing Translational Sciences (NCATS), 2011):
Some of the results follow. Further columns of the screen follow, without active or inactive calls. Most of these compounds were active or inconclusive in the main read-out, so they are no random draw. The note in brackets gives the kind of curve behind each potency; many fits are weak.

Test: qHTS Assay to Find Inhibitors of Chronic Active B-Cell Receptor Signaling
Details: ABC-DLBCL IkBa-CBG/CBR reporter, luminescence ratio (green luciferase fused to IkBa over red control in TMD8 lymphoma cells), 4 h
In short: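 TMD8 human ABC-DLBCL cells with doxycycline-inducible IκBα–green luciferase fusion and unfused red luciferase, in 0.5% FBS medium; compounds up to 46 uM, 4 h at 37C. Green/red luminescence ratio, filter-overlap corrected, fitted to concentration-response curves.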

[1] = measured here: CBR red luminescence, cell number
[2] = measured here: IkBa-CBG green luminescence

| Compound | AC50 [1] | AC50 [2] |
| --- | --- | --- |
| CSc1ccc(/C=N/Nc2cccc(C(=O)O)c2)cc1 | 17.8 µM [falling, partial curve, poor fit] | – |
| Cc1cc(C)nc(SCc2ccc(C(=O)NNC(=O)Nc3cccc(Cl)c3)cc2)n1 | 29.1 µM [falling, single point] | – |
| CCC1CCCCN1CCCNC(=O)Cn1ncc2c(C)n(Cc3ccccc3Cl)c(C)c2c1=O (stereo unspecified) | 22.4 µM [falling, partial curve, poor fit] | – |
| N#Cc1nc(-c2ccc(OCc3ccc(Cl)cc3)cc2)oc1NCCCn1ccnc1 | 35.5 µM [rising, single point] | – |
| Cc1cccc2nc(-c3ccco3)c(Nc3ccccc3)n12 | 35.5 µM [falling, single point] | 15.8 µM [rising, partial curve, poor fit] |
| COc1ccc(N=CC=C2OC(C)(C)C(C)(C)O2)cc1OC | 35.5 µM [rising, single point] | – |
| Cc1ccc(N(C(=O)C(F)(F)F)C(C(=O)NC2CCCCC2)c2cccs2)cc1 (stereo unspecified) | 10 µM [falling, partial curve, poor fit] | – |
| O=C(Nc1ccc(F)c(Cl)c1)c1nsc(Cl)c1Cl | 15.8 µM [falling, single point] | – |
| Cc1cc(N2C(=O)C3CCC(c4ccccc4)CC3C2=O)no1 (stereo unspecified) | 3.55 µM [rising, partial curve, poor fit] | – |
| CCOCCCN(C)C1CCN(C(=O)c2oc3ccccc3c2NC(=O)Cc2ccc(F)cc2)CC1 | 2.82 µM [falling, partial curve, poor fit] | – |
| O=C(O)C1=C[C@H](c2csc3ccccc23)C[C@H](OCCCCO)O1 | 12.6 µM [falling, single point] | – |
| COCCNC(=O)CCSc1nc(-c2ccc(OC)cc2)cc(C(F)(F)F)n1 | 16.4 µM [rising, partial curve, poor fit] | – |
| CC(C)N(C(=O)Cn1cc(S(=O)(=O)CC(=O)Nc2ccccc2)c2ccccc21)C(C)C | 14.1 µM [falling, partial curve, poor fit] | – |
| C=CCn1c(SCC(N)=O)nnc1-c1ccccc1O | 0.447 µM [rising, partial curve, poor fit] | – |
| CC1Cc2ccccc2N1S(=O)(=O)c1cccc(C(=O)NNC(=O)c2ccccc2F)c1 (stereo unspecified) | 4.11 µM [falling, partial curve, poor fit] | – |
| C=C(C)CN=C1SC(C(=O)Nc2sc3c(c2C(=O)OC)CCC3)C(N)=C1C(N)=O (stereo unspecified) | 23.1 µM [falling, single point] | – |
| COc1ccc(CCNC(=O)CSc2ncnc3c2oc2ccccc23)cc1OC | 17.8 µM [rising, single point] | – |
| COCCN(C(=O)CSc1ncn[nH]1)c1c(N)n(Cc2ccccc2)c(=O)[nH]c1=O | 23.1 µM [rising, partial curve, poor fit] | – |
| CCOC(=O)c1ccc(-c2ccc(CO)o2)cc1 | 2.82 µM [rising, partial curve, poor fit] | – |
| CC(C)OC(=O)NCCOC(=O)Nc1ccc(Cl)cc1 | 0.891 µM [rising, full curve, poor fit] | – |

| Compound | AC50 [1] | AC50 [2] |
| --- | --- | --- |
| CCc1cc2c(=O)c(-c3ccc4c(c3)OCCO4)coc2cc1OS(C)(=O)=O | 20.6 µM [falling, partial curve] | – |
| BrC(=C\c1ccccc1)/C=N/n1cnnc1 | 35.5 µM [falling, single point] | – |
| COC(=O)CC1C(=O)NCCN1C(=O)Nc1cccc(Cl)c1 (stereo unspecified) | 6.31 µM [rising, single point] | – |
| COc1ccc(NC(=O)CN(C)C(=O)/C=C/c2ccc(OCc3ccccc3)cc2)cc1 | 2.51 µM [falling, partial curve, poor fit] | – |
| CCN1CCN(C(=O)c2ccc(CS(=O)(=O)Cc3ccccc3F)o2)CC1 | 6.51 µM [falling, single point] | – |
| O=c1c2ccccc2oc2cc(-c3ccc(CN4CCOCC4)cc3)ccc12 | 20.6 µM [rising, partial curve, poor fit] | – |
| CCCC(=O)Nc1ccc(-c2ccc(NC(=O)CCC)cc2)cc1 | 0.517 µM [rising, full curve, poor fit] | – |
| C=C1c2cc(CC)ccc2NC(=O)N1c1ccc(C)cc1 | 9.2 µM [rising, partial curve, poor fit] | – |
| O=C(c1cccc(-n2cnnn2)c1)N1CC=C(c2ccccc2)CC1 | 35.5 µM [falling, single point] | – |
| O=C(/C=C/c1cccs1)Nc1scc(-c2ccccc2)c1C(=O)O | 8.91 µM [falling, partial curve] | – |
| CC[C@@]1(c2ccccc2OC)C(=O)N(C(=O)OC)N1C(=O)OC | 1.78 µM [falling, full curve, poor fit] | – |
| Cc1ccccc1OCCn1cnc2c(N)ncnc21 | – | 23.1 µM [falling, partial curve, poor fit] |
| O=C(Nc1nc2ccccc2s1)c1ccccc1[N+](=O)[O-] | 7.08 µM [falling, partial curve] | – |
| Cc1cccc(NC(=O)C(CC(C)C)NC(=O)C2CCC(C)CC2)n1 (stereo unspecified) | 11.2 µM [rising, partial curve, poor fit] | – |
| CN(C)c1ccc(-c2nnc(-c3cccs3)o2)cc1 | 2.24 µM [falling, partial curve, poor fit] | – |
| CCN(c1ccccc1)S(=O)(=O)c1cc(C(=O)Nc2cccc(Cl)c2)ccc1F | 23.1 µM [falling, single point] | 9.2 µM [rising, partial curve, poor fit] |
| O=C(NC(=S)Nc1ccc(S(=O)(=O)N2CCCC2)cc1)c1cccs1 | 16.4 µM [falling, single point] | – |
| CC(C)Oc1ccc(Br)cc1C(=O)N/N=C/c1c[nH]c2ccccc12 | 10 µM [falling, partial curve, poor fit] | – |
| C/C(=N/NC(=O)c1cc(O)c(O)c(O)c1)c1ccc([N+](=O)[O-])cc1 | 31.6 µM [falling, single point] | – |

Full records as entered above:
O=C(NC(=S)Nc1ccc(S(=O)(=O)N2CCCC2)cc1)c1cccs1 in the list: AC50 [1]: 16.4 µM [falling, single point]
CC[C@@]1(c2ccccc2OC)C(=O)N(C(=O)OC)N1C(=O)OC in the list: AC50 [1]: 1.78 µM [falling, full curve, poor fit]
C=C1c2cc(CC)ccc2NC(=O)N1c1ccc(C)cc1 in the list: AC50 [1]: 9.2 µM [rising, partial curve, poor fit]
